“And” between values parts separate entries of the source, which are not always exact repeats. Identical values can stand only once. The campaign covered roughly 360,000 compounds. About 7,500 (2.1%) were called active. The shares of active, inactive and inconclusive entries below differ from those in the screen. The call rests on the fitted dose curve; in most records, active means well fitted inhibition curve with a large enough effect; inconclusive means small, poorly fitted or top-dose-only effect, or effect the other way; inactive means flat fitted curve, though single readings scatter. Potencies of inconclusive entries are doubtful fits and often do not repeat.
Experiment: Nrf2 qHTS screen for inhibitors; further: nearly all actives have a fitted effect of over 60% in size
Conditions: A549 ARE-Fluc reporter, luciferase luminescence, 18-24 h; activity change, negative = inhibition: at 46 µM (top of the series)
Procedure, shortened: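 Cells were seeded and rested 2 h, then exposed to compounds for 18-24 h. CellTiter-Fluor was read first as a viability measure. BugLite was added 15 min before the final luminescent read of ARE-luciferase activity in A549 cells.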
On the % scale 0 is the no-effect control and ±100 the full control effect; potency means the concentration at half of the fitted maximal effect.

Compound	Potency	activity change, negative = inhibition
Cn1c(-c2ccc(N)cc2)nc2ccccc21	inconclusive: 13 µM [activator, partial curve, poor fit] and inconclusive: 9.2 µM [activator, single point]	
Cc1c(CCC(=O)O)c(=O)oc2cc3occ(-c4ccccc4)c3cc12	inconclusive: 9.2 µM [falling, partial curve]	
O=C(Nc1ccccc1)c1nn(-c2cccc(C(F)(F)F)c2)ccc1=O	inconclusive: 2.91 µM [falling, partial curve, poor fit]	
Oc1ccc(N=Nc2ccccc2)o1	inconclusive: 5.8 µM [falling, partial curve]	
Cc1cc(Nc2nnnn2-c2ccccc2)n(-c2ccc(Cl)cc2)n1	inconclusive: 25.9 µM [falling, single point]	
CCc1ccc(-c2nc(SCC(=O)NC3CCS(=O)(=O)C3)n[nH]2)cc1 (stereo unspecified)	inconclusive: 5.17 µM [activator, partial curve, poor fit]	
O=C(Nc1ccc2c(c1)CCC2)c1cccc(OC(F)F)c1	inconclusive: 1.3 µM [activator, full curve]	
CCCCNc1nc2c(c(=O)n(C)c(=O)n2C)n1Cc1cccc(OC)c1	active: 5.8 µM	
CCNC(=S)N1CCN(c2nc(-c3ccc(F)cc3)cs2)CC1	active: 18.4 µM	
Cc1ccc(CN(C(=O)c2ccccc2Br)C2CCS(=O)(=O)C2)o1 (stereo unspecified)		inactive: 5.66%
CCCC1(CCC)C(=O)NC(=NCCc2ccc(OC)c(OC)c2)NC1=O	inconclusive: 9.2 µM [activator, partial curve, poor fit]	
O=C(Nc1ccc2oc(-c3ccc4ccccc4c3)nc2c1)c1cc(Br)ccc1Cl	inconclusive: 23.1 µM [activator, partial curve]	
C=CC(C)(C)c1c(O)c(CC=C(C)C)c(O)c2c(=O)c3ccc(O)c(O)c3oc12	inconclusive: 23.1 µM [falling, single point]	
CCN(CC)S(=O)(=O)c1ccc(NC(=O)c2ccc(Cl)nc2)cc1	inconclusive: 10.3 µM [falling, partial curve]	
Cc1ccc(C2(C)CC(C)(C)N(C(=O)CSc3nnc(C)s3)c3ccccc32)cc1 (stereo unspecified)	active: 20.6 µM	
Cc1ccccc1Nc1nc(N)nc(CSc2nc3ccccc3s2)n1	inconclusive: 25.9 µM [falling, single point]	
O=C(Nc1ccccc1)c1cccc(N2C(=O)C3C4C=CC(C5CC45)C3C2=O)c1 (stereo unspecified)	active: 20.6 µM	
Cc1ccsc1C(=O)OCC(=O)NCC1CCCO1 (stereo unspecified)	inconclusive: 18.4 µM [activator, partial curve, poor fit]	
CC(=O)Nc1ccc(-c2cn3cccnc3n2)cc1	inconclusive: 25.9 µM [activator, single point]	
Cc1cc(C(=O)NCc2ccc(F)cc2)c2ccccc2n1		inactive: -10.3%
COc1ccccc1-c1cc(C(=O)N/N=C/c2cccs2)c2ccccc2n1	inconclusive: 29.1 µM [activator, single point]	

Compound	Potency	activity change, negative = inhibition
C/C(=C\c1ccccc1)C(=O)NCCc1ccccc1	inconclusive: 4.11 µM [activator, partial curve]	
CCCCC(=O)Nc1cccc(NC(=O)c2cccnc2Cl)c1	inconclusive: 20.6 µM [falling, single point]	
CC(C)(C)n1nnnc1C(c1ccc(Cl)cc1)N(Cc1cccnc1)Cc1ccco1 (stereo unspecified)	inconclusive: 29.1 µM [falling, single point]	
O=C(CNS(=O)(=O)c1ccccc1)Nc1ccc2c(c1)OCO2	inconclusive: 8.2 µM [activator, partial curve, poor fit]	
O=C1C2CCCN2C(=S)N1C1CCCCC1 (stereo unspecified)	inconclusive: 4.11 µM [activator, single point]	
CCc1ccc(NC(=O)CC(c2ccc(C)cc2)N2Cc3ccccc3C2=O)cc1 (stereo unspecified)	inconclusive: 29.1 µM [activator, single point]	
O=[N+]([O-])c1nn(-c2ccc3c(c2)OCCO3)n(O)c1=NC1CCCCC1	inconclusive: 13 µM [activator, partial curve, poor fit]	
CCc1ccc(-c2cc(C)no2)cc1S(=O)(=O)N1CCN(c2cccc(Cl)c2)CC1	inconclusive: 29.1 µM [activator, single point]	
O=C(CCC1CCCCC1)Nc1ncn[nH]1	inconclusive: 7.31 µM [falling, partial curve, poor fit]	
CCc1nnc(NC(=O)c2ccc(S(=O)(=O)NC3CCCCC3)cc2)s1	inconclusive: 16.4 µM [falling, partial curve, poor fit]	
COc1ccccc1-c1coc2c(CN3CCN(CCO)CC3)c(O)ccc2c1=O		inactive: 6.2%
O=C(Nc1ccc2c(c1)CCCN2C(=O)c1ccccc1)c1ccccc1	inconclusive: 29.1 µM [falling, single point]	
COc1ccc(N(C)S(=O)(=O)c2cccc(C(=O)OCC(=O)N3CC(C)CC(C)C3)c2)cc1 (stereo unspecified)	inconclusive: 29.1 µM [falling, single point]	
O=C(NNS(=O)(=O)c1ccccc1)c1cccc(F)c1	inconclusive: 1.16 µM [falling, full curve, poor fit]	
Cc1ccc(/C=N/Nc2cc(C)nc(NCc3ccccc3)n2)cc1	inconclusive: 2.31 µM [activator, full curve, poor fit]	
Cc1cc(N2CCN(C)CC2)nc2ccc(NC(=O)Nc3ccccc3)cc12	inconclusive: 2.59 µM [activator, single point]	
COc1ccccc1-c1nc(C#N)c(N2CCN(c3ccccc3)CC2)o1		inactive: -27.6%
O=C(NCc1ccco1)C(c1cccs1)N(C(=O)Cc1cccs1)c1ccccc1 (stereo unspecified)		inactive: -2.44%
COc1ccc([N+](=O)[O-])cc1NC(=O)CSc1ncccn1	inconclusive: 18.4 µM [falling, single point]	
CCOC(=O)C1=C(c2ccccc2)NC(SCC(=O)Nc2cccc(C)c2)=C(C#N)C1c1ccco1 (stereo unspecified)	inconclusive: 29.1 µM [falling, single point]	

From PubChem BioAssay AID504444 (National Center for Advancing Translational Sciences (NCATS), 2011)
